Results from publication doi:10.1101/2021.02.14.429938.
Results are given in words; binding and its absence hold for the method and conditions named. In cells and extracts the contact can be indirect. Some results given as binding are weak or reduced against the parent protein; the word gives no strength. Where a sequence is shown, tags or fusion partners need not be part of it.

By UniProt entry, the sequences of proteins in these tests, tags left out.
UniProt Q61686: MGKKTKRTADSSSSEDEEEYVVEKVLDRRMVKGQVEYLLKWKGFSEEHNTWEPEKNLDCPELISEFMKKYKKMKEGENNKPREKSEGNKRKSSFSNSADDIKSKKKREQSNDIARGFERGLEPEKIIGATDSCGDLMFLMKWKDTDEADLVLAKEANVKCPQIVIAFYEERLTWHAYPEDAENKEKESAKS
UniProt P09405: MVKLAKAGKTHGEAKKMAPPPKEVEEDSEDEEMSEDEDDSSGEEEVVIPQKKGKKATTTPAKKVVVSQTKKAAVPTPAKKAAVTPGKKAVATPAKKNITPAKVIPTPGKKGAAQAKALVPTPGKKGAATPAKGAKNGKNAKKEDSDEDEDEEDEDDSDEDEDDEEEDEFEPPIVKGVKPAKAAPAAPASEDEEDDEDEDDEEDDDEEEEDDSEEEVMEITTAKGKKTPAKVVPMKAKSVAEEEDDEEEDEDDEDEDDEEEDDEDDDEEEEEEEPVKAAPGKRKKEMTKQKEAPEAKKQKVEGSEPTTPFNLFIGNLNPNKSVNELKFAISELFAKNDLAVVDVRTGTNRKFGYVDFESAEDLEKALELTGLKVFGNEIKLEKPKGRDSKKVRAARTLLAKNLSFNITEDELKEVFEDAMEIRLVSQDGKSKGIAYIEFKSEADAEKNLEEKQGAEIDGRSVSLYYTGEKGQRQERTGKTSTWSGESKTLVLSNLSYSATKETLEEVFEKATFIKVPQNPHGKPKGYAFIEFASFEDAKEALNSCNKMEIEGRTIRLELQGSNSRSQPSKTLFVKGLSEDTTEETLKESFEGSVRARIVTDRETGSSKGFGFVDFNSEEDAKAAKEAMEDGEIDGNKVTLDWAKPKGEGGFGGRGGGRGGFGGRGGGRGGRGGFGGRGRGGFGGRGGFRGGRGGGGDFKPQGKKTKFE

Molecular target: T1, Stag1 (mouse (endogenous in E14 ES cells)) (UniProt Q9D3E6)
T1 sequence: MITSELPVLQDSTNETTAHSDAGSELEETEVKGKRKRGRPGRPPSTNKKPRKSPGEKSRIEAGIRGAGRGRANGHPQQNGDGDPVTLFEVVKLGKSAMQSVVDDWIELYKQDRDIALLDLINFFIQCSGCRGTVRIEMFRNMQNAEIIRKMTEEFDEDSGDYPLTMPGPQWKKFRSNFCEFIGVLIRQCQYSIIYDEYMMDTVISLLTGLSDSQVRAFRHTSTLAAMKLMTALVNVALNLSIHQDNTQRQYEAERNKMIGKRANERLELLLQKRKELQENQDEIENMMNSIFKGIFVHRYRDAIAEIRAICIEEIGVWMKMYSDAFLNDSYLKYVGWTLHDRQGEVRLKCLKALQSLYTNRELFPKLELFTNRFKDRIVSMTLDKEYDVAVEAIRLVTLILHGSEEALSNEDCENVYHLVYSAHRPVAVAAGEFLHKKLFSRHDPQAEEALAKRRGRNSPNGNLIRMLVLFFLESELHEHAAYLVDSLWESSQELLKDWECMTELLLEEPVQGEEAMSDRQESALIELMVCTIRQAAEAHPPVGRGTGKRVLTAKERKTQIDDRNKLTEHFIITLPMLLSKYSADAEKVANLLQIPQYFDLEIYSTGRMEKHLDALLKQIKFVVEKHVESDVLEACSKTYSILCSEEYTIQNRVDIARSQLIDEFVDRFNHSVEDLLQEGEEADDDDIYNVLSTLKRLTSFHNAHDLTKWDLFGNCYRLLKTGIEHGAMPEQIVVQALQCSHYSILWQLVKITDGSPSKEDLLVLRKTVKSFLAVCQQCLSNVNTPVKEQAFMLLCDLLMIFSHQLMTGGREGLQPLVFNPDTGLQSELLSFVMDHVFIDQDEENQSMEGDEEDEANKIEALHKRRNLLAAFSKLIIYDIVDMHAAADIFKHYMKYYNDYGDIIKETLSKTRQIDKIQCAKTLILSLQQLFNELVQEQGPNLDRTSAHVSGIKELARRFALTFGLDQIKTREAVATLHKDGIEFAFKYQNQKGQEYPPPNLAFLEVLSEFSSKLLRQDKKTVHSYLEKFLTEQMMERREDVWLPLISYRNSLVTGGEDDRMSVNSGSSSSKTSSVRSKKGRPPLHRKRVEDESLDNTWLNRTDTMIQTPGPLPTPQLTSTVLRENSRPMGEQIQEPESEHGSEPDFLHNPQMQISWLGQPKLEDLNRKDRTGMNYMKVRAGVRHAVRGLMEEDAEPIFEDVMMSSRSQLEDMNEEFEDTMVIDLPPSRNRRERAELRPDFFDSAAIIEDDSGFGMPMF
Assay: co-IP

| Substance | binding |
| --- | --- |
| Heterochromatin Protein 1 alpha (from UniProt Q61686 1-191) | binds |
| Nucleolin (from UniProt P09405 1-707) | binds |
